Measurements from patent US20090232838A1 (priority 2005, published 2009).

Assay: general procedure: Fmoc solid-phase peptide synthesis; Rink Amide MBHA resin (Novabiochem, 0.66 mmol/g); Wang resin if C-terminal OH; HBTU/HOBT in DMF
Details: whole synthesis, analytical HPLC, scale of the general procedure 1.00 mmol, 0.3 mmol

| Substance | purity (crude or final not stated) |
| --- | --- |
| Ac-c(Cys-Glu-His-D-2-Nal-Arg-2-Nal-Ala-Cys)-Pro-Pro-Lys-Asp-β-Ala-Arg-Arg-Lys-Arg-Arg-Gln-Arg-Arg-Arg-NH2 | 99.9% |
| Ac-c(Cys-Glu-His-D-2-Nal-Arg-1-Nal-Ala-Cys)-Pro-Pro-Lys-Asp-β-Ala-Arg-Lys-Arg-Arg-Arg-Gln-Arg-Arg-Arg-NH2 | 99.9% |
| Ac-c(Cys-Glu-His-D-2-Nal-Arg-Bal-Ala-Cys)-Pro-Pro-Arg-Asp-β-Ala-Arg-Arg-Arg-Arg-Arg-Arg-Gln-Arg-Arg-Arg-NH2 | 99.9% |
| Ac-c(Cys-Glu-His-D-2-Nal-Arg-Trp-Gly-Cys)-Pro-Pro-Lys-Asp-Tyr-Gly-Arg-Lys-Lys-Arg-Arg-Gln-Arg-Arg-Arg-NH2 | 99.9% |
| Ac-c(Cys-Glu-His-D-2-Nal-Arg-2-Nal-Ala-Cys)-Pro-Pro-Lys-Asp-β-Ala-Arg-Arg-Arg-Arg-Arg-Gln-Arg-Arg-Arg-NH2 | 99.9% |
| Ac-c(Cys-Glu-His-D-2-Nal-Arg-1-Nal-Ala-Cys)-Pro-Pro-Lys-Asp-β-Ala-Arg-Arg-Arg-Arg-Arg-Arg-Gln-Arg-Arg-Arg-NH2 | 99.9% |
| Ac-Nle-c(Cys-D-Ala-His-D-Phe-Arg-Trp-Cys)-Doc-Tyr-Gly-Arg-Lys-Lys-Arg-Arg-Gln-Arg-Arg-Arg-NH2 | 99.9% |
| Ac-Nle-c(Asp-His-D-2-Nal-Arg-Trp-Lys)-β-Ala-β-Ala-Tyr-Gly-Arg-Lys-Lys-Arg-Arg-Gln-Arg-Arg-Arg-NH2 | 99.9% |
| Ac-Nle-c(Cys-D-Ala-His-D-Phe-Arg-Trp-Cys)-β-Ala-Arg-Arg-Lys-Arg-Arg-Gln-Arg-Arg-Arg-NH2 | 99.9% |
| Ac-CEH[d2Nal]R[2Nal]ACPPKD-NH2 (disulfide 1-8) | 98.9% |

Bridges are numbered along the chain shown (N, C = ends). [ ]: non-standard residue; d: D form. 2Nal = N[C@@H](Cc1ccc2ccccc2c1)C(=O)O; d2Nal = N[C@H](Cc1ccc2ccccc2c1)C(=O)O
